As a reminder, the AC50 is the midpoint of the concentration-response curve, whichever way the signal moves. A lower AC50 goes with greater potency.

From PubChem BioAssay AID2685 (National Center for Advancing Translational Sciences (NCATS), 2010) come the findings set out here.

A short description of the experiment: qHTS Assay for Lipid Storage Modulators in Drosophila S3 Cells.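 For cell number change: cells counted by Cell Tracker Red CMTPX staining in the red channel.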 The following applies: BODIPY lipid droplet fluorescence, 18-24 h; for cell number change: measured here: cell count max response, cells fed with added oleic acid. A digest of the protocol: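 Laser-scanning cytometry quantifies lipid droplet accumulation (500–530 nm total intensity; droplet/cell object ratio) in oleic acid-fed (400 uM added) Drosophila S3 cells treated with a concentration series. 20 uM Triacsin C defined 100% inhibition.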
(In general: qHTS replaces the single test concentration by a dilution series.)

Setting [1] is: measured here: lipid fluorescence (Fed channel) AC50, cells fed with added oleic acid.
[2] abbreviates: measured here: cell number channel AC50, cells fed with added oleic acid.

The list shows a part of the results. Shown are side measurements of this screen, not its main read-out; they come without a call. Most of these compounds were active or inconclusive in the main read-out, so they are no random draw. Words in brackets tell the shape of the fitted curve; partial curves, single points and poor fits give uncertain potencies.

In the case of `Cc1c(-c2ccc(OCc3ccccc3)cc2)nc2ccccc2c1C(=O)O`, the cell number change was -1.65%. Further, under setting [1], the AC50 is 23.1 µM [rising, single point].

Take `COc1ccc(Nc2ccc(S(=O)(=O)N3CCCCC3)cc2[N+](=O)[O-])cc1`: the cell number change is -59.8%. Besides, under setting [2], the AC50 was 20.6 µM [falling, partial curve]. Further, under setting [1], the AC50 is 20.6 µM [falling, partial curve].

On to `c1ccc(CNC2=NCCC2)nc1`, for which the cell number change was -130%. The concentration at half-maximal activity (AC50) under setting [2] is 29.1 µM [falling, single point]. Besides, the AC50 under setting [1] is 29.1 µM [falling, single point].

Consider `Cc1cccc(N(C)C(=S)Oc2ccc3ccccc3c2)c1`, for which the cell number change worked out at 0.304%. The concentration at half-maximal activity (AC50) under setting [1] was 7.31 µM [rising, partial curve].

As to `COc1ccc(CNC(=O)[C@H](Cc2c[nH]c3ccccc23)NC(=O)[C@@H]2Cc3ccccc3CN2)cc1`, the cell number change came to 21%. Besides, the AC50 under setting [1] was 6.51 µM [rising, single point].

Turning to `Cn1c(N)c(C(=O)COC(=O)/C=C/c2cccc(C(F)(F)F)c2)c(=O)n(C)c1=O`, the AC50 under setting [1] is 0.164 µM [rising, full curve, poor fit].

Consider `CC(C)(C)NC(=O)C(c1ccncc1)N(C(=O)CNC(=O)c1ccco1)c1ccc(F)cc1` (configuration not stated), for which the cell number change is -11.5%.

Turning to `O=C(NC(=S)N1CCCc2ccccc21)c1ccco1`, the cell number change is -10.5%. Besides, under setting [1], the half-maximal activity concentration (AC50) is 1.16 µM [rising, single point].

Take `COc1cc(NC2c3ccccc3C(=O)N2c2cc(C)ccn2)cc(OC)c1OC` (configuration not stated): the half-maximal activity concentration (AC50) is, setting by setting: under setting [2], 2.06 µM [rising, partial curve]; under setting [1], 1.46 µM [falling, partial curve].

As to `CCOc1ccc2c(c1)C(C)=CC(C)(C)N2S(=O)(=O)c1ccc(NC(C)=O)cc1`, the half-maximal activity concentration (AC50) under setting [1] is 5.8 µM [falling, full curve].

In the case of `O=C1CN(c2ccc(Br)cc2)C(=O)N1CC(=O)N1CCCc2ccccc21`, the cell number change is 0.582%.

In the case of `CC(C)CNc1nc(Oc2ccc(=O)n(-c3ccccc3)n2)nc(N2CCOCC2)n1`, the cell number change came out at 14.8%.

Consider `CC(NC(=O)C(=O)N1CCOCC1)C(c1cccs1)N1CCN(c2ccccc2F)CC1` (configuration not stated), for which the cell number change was found to be 3.07%.

As for `COc1ccc2nc(NC(=O)CN3C(=O)NC4(CCCC4)C3=O)sc2c1`, the cell number change was 120%. Besides, the AC50 under setting [2] was 23.1 µM [rising, single point].

As for `CCCOc1ccc(C(=O)OCC(=O)NCCc2ccc(OCC)c(OCC)c2)cc1OC`, the cell number change was -24.3%. Also, the AC50 under setting [2] is 0.146 µM [falling, full curve, poor fit]. Under setting [1], the concentration at half-maximal activity (AC50) is 0.116 µM [falling, full curve, poor fit].

Regarding `COc1ccc(NC(=O)c2cc(OC)c(OC)c(OC)c2)cc1S(=O)(=O)N1CCCCC1`, the cell number change was -36.5%. The AC50 under setting [2] was 0.731 µM [falling, full curve]. Under setting [1], the AC50 was 29.1 µM [falling, single point].

`CCOC(=O)C1CCCN(Cc2ccccc2C)C1` (configuration not stated): the cell number change is -13%. Further, under setting [1], the concentration at half-maximal activity (AC50) was 5.17 µM [falling, full curve].

As to `O=c1[nH]cnc2ccccc12`, the cell number change was -14.3%. Also, the AC50 under setting [2] was 0.731 µM [falling, single point].

With `COc1ccc(-c2cc(-c3ccc(OC)cc3)[nH]n2)cc1`, the cell number change was -4.33%.

As for `COc1ccc(C(CC(=O)N2CCCC(C)C2)c2c(O)cc(OC)cc2OC)cc1` (configuration not stated), the cell number change amounted to 16.4%. The AC50 under setting [1] is 18.4 µM [rising, partial curve].

On to `O=C(O)c1ccccc1-c1ccccc1C(=O)Nc1nccs1`, for which the cell number change came out at 1.6%. The half-maximal activity concentration (AC50) under setting [1] was 0.00517 µM [rising, full curve, poor fit].

On to `Cc1cc(C)c(C(=O)CSC2=NC(N)=C(C#N)C3(CCCCC3)C2C(N)=O)cc1C` (configuration not stated), for which the cell number change was -8.06%. Also, the concentration at half-maximal activity (AC50) under setting [2] was 1.46 µM [rising, partial curve]. Further, the AC50 under setting [1] was 0.00517 µM [rising, full curve, poor fit].

For the molecule `CCN(CC)S(=O)(=O)c1ccc(OC)c(NS(=O)(=O)c2cccc(C(=O)O)c2)c1`, the cell number change is -115%.

For `COc1cc(C2c3c(-c4cc(C)cc(C)c4O)n[nH]c3C(=O)N2CCCO)cc(OC)c1OC` (configuration not stated), the cell number change is -11.8%. For the same molecule, the AC50 under setting [1] was 0.731 µM [falling, full curve].

As to `CN(C)c1nc2c(c(=O)[nH]c(=O)n2C)n1CCOc1ccccc1`, the cell number change was 21.2%.

Consider `CCC(C)(C)NC(=O)CN(C(=O)CNS(=O)(=O)c1ccc(F)cc1)c1ccc2c(c1)OCCO2`, for which the cell number change is -9.17%. For the same molecule, under setting [1], the AC50 is 1.16 µM [falling, single point].

Regarding `Cc1c(CC(=O)N[C@H](C(=O)O)C(C)C)c(=O)oc2cc3c(cc12)CCC(C)(C)O3`, the AC50 under setting [1] was 0.146 µM [falling, full curve, poor fit].

With `Cc1cc2n(n1)C(c1cn(-c3ccccc3)nc1C)Nc1ccccc1-2` (configuration not stated), the cell number change was -9.89%. The concentration at half-maximal activity (AC50) under setting [1] was 29.1 µM [rising, single point].

In the case of `O=c1cc(CSc2nnc(C3CC3)n2Cc2ccccc2)nc2sccn12`, the cell number change was found to be 53.9%. Under setting [2], the AC50 is 13 µM [rising, partial curve].

Turning to `Cc1ccccc1NC(=O)COC(=O)/C=C/c1cn(-c2ccccc2)nc1-c1cccnc1`, the cell number change is 0.235%. Besides, the AC50 under setting [1] is 0.116 µM [falling, full curve, poor fit].

Turning to `CCCc1nnc(NC(=O)C2CC(=O)N(C3CCCC3)C2)s1` (configuration not stated), the cell number change was 18.7%. In addition, the AC50 under setting [1] was 29.1 µM [rising, partial curve].

Turning to `O=C(c1ccc(S(=O)(=O)Nc2cccc(C(F)(F)F)c2)cc1)N1CCOCC1`, the cell number change was -7.08%. For the same molecule, under setting [1], the concentration at half-maximal activity (AC50) is 29.1 µM [rising, single point].

Consider `OCCNCc1cccc(OCc2ccccc2Cl)c1`, for which, under setting [1], the AC50 was 5.8 µM [rising, single point].

Take `CN1N=C(C(C)(C)C)CC1=O`: the cell number change is -18.6%. Further, the half-maximal activity concentration (AC50) under setting [1] was 20.6 µM [falling, single point].

For `O=C(/C=C/c1ccco1)N(Cc1cccc(F)c1)C1CCS(=O)(=O)C1` (configuration not stated), the cell number change was -10.6%. For the same molecule, the AC50 under setting [1] is 6.51 µM [rising, single point].

Regarding `COc1ccccc1N1CCN(C(=O)COc2cccc(C)c2C)CC1`, the cell number change stood at 27%.

Consider `O=C(c1cc(COc2ccc(F)cc2Cl)on1)N1CCN(c2cnccn2)CC1`, for which the cell number change was -3.66%.

Regarding `N#CC1=C(N)C2=CCCC[C@H]2[C@H](c2ccccc2)C1(C#N)C#N`, the cell number change was determined as 0.0785%. Besides, under setting [1], the AC50 is 3.26 µM [falling, partial curve].

Regarding `CC(C)Oc1ccc(S(=O)(=O)N2CCOCC2)cc1NC(=O)CC1OC(=O)c2ccccc21` (configuration not stated), under setting [1], the half-maximal activity concentration (AC50) is 6.51 µM [falling, single point].

For the molecule `COc1cccc(N2CC(C(=O)Oc3ccc4ccccc4c3)CC2=O)c1` (configuration not stated), the cell number change was -36.3%. Under setting [2], the AC50 is 5.8 µM [falling, partial curve, poor fit]. Also, the AC50 under setting [1] was 0.58 µM [falling, full curve, poor fit].

Regarding `c1ccc(OCCCn2ccnc2)cc1`, the concentration at half-maximal activity (AC50) under setting [1] is 0.116 µM [falling, full curve, poor fit].

Take `CCC(C)(C)NC(=O)CN(C(=O)CCC(=O)Nc1nccs1)c1cccc(C)c1C`: the cell number change was 5.25%.

Consider `Cc1csc(Nc2ccccc2C(F)(F)F)n1`, for which the cell number change is -38%. Further, under setting [2], the AC50 is 29.1 µM [falling, single point]. The AC50 under setting [1] was 29.1 µM [falling, single point].

`COc1ccc(N(C)S(=O)(=O)c2cccc(C(=O)Nc3cccc(C(=O)NC4CC4)c3)c2)cc1`: the cell number change is -10.3%. In addition, the AC50 under setting [1] was 13 µM [falling, partial curve, poor fit].

Turning to `CCCCN(C)C(=O)c1cc2cc3cc(OC)ccc3nc2o1`, the cell number change was -18.1%. Also, the AC50 under setting [1] was 32.6 µM [falling, single point].

Regarding `COCCCNC(=O)c1cccc(S(=O)(=O)N2CC3(C)CC2CC(C)(C)C3)c1` (configuration not stated), the cell number change worked out at 25%. The AC50 under setting [2] was 4.11 µM [rising, single point].

For `O=S1(=O)CCO[C@H]2Cc3ccccc3[C@H]2N1Cc1cccc(F)c1`, the cell number change turned out to be 14.7%. For the same molecule, the AC50 under setting [1] is 29.1 µM [rising, single point].

As to `Cc1cc(C(=O)NC2CCN(Cc3ccccc3)CC2)n[nH]1`, the cell number change was -7.65%.

In the case of `O=C(Nc1cccs1)Nc1c(F)c(F)c(F)c(F)c1F`, the cell number change is -29.1%. In addition, the AC50 under setting [2] is 0.116 µM [rising, full curve, poor fit]. Moreover, under setting [1], the AC50 is 6.51 µM [rising, partial curve, poor fit].

With `COc1ccc(-c2nc(CS(=O)CC(=O)NCCc3ccc(OC)c(OC)c3)c(C)o2)cc1` (configuration not stated), the cell number change was -28.4%. Moreover, the AC50 under setting [1] was 29.1 µM [falling, single point].

Consider `O=S(=O)(Nc1ccc(-c2ccc3nncn3n2)cc1)c1cc(F)ccc1F`, for which the cell number change came out at 13.3%.

As for `O=C(O)CCC(=O)Nc1ccccc1Oc1ccccc1`, the cell number change was -48.2%.

For the molecule `O=C(O)Cc1coc(-c2ccc(F)cc2)n1`, the AC50 under setting [2] is 2.59 µM [falling, partial curve].

For the molecule `CCCc1cc(-c2[nH]ncc2-c2ccc3c(c2)OCCCO3)c(O)cc1OC`, the cell number change was -68.8%. The AC50 under setting [2] is 18.4 µM [falling, single point]. The AC50 under setting [1] was 20.6 µM [falling, single point].

Take `COc1ccc(OC)c(C(=O)Cn2nnc3ccccc3c2=O)c1`: the cell number change is -45.1%. Also, under setting [2], the concentration at half-maximal activity (AC50) is 2.06 µM [falling, partial curve]. Also, the concentration at half-maximal activity (AC50) under setting [1] is 29.1 µM [falling, single point].

On to `COc1ccc(N(CC(=O)NCCc2ccc(OC)c(OC)c2)S(=O)(=O)c2c(C)noc2C)cc1`, for which the cell number change was -0.59%. Further, the AC50 under setting [1] is 0.58 µM [rising, single point].

Consider `O=C(COc1cccc(Cl)c1)Nc1cc(S(=O)(=O)N2CCOCC2)ccc1N1CCOCC1`, for which the cell number change was -36.2%. Besides, the AC50 under setting [2] was 16.4 µM [falling, partial curve]. Besides, under setting [1], the AC50 is 14.6 µM [falling, partial curve].

For the molecule `Cc1oc(C(=O)O)cc1COc1ccccc1Cl`, the cell number change came to 1.06%. Also, the AC50 under setting [1] is 29.1 µM [falling, partial curve, poor fit].

With `CCOC(=O)c1[nH]c2cc(OC)c(OC)cc2c1N`, the cell number change is 90%. Under setting [2], the half-maximal activity concentration (AC50) was 29.1 µM [rising, single point]. Also, the AC50 under setting [1] is 4.11 µM [rising, partial curve].

On to `COc1ccc(N(C(=O)c2cccnc2)S(=O)(=O)c2ccc(OC)c(OC)c2)cc1`, for which the cell number change came out at 2.88%. Moreover, under setting [1], the AC50 is 29.1 µM [rising, single point].
